These results are taken from patent US20240066045A1, “SEMICARBAZONE-BASED SAPONIN CONJUGATE” (priority 2020, published 2024).

This series relates to human red blood cells (RBC). Description: Haemolysis assay. The format is cell-based. On the procedure:
Red blood cells (RBCs) were isolated from a buffy coat using a Ficoll gradient. The obtained RBC pellet (˜4-5 ml) was washed 2× with 50 ml DPBS (without Ca^2+/Mg^2+, PAN-Biotech GmbH). Cells were pelleted by centrifugation for 10 min, 800×g at RT. RBC were counted and resuspended at 500.000.000 c/ml in DPBS (without Ca^2+/Mg^2+), based on total cell count. SO1861-linker dilutions were prepared in DPBS (with Ca^2+/Mg^2+, PAN-Biotech GmbH), at 1.11× final strength. For positive lysis control a 0.02% Triton-X100 solution was prepared in DPBS^+/+. Of all compound solutions 135 μl was dispensed/well in a 96 well V-bottom plate. To this 15 μl RBC suspension was added and mixed shortly (10 sec—600 rpm). The plate was incubated 30 min at RT, with gentle agitation. Afterwards the plate was spun for 10 min at 800×g to pellet the RBC and 100-120 μl supernatant was transferred to a standard 96 wp. Subsequently, the OD at 405 nm was measured on a Thermo Scientific Multiskan FC plate reader (Thermo Scientific). For quantification the background signal of ‘DPBS^+/+ only’ wells was subtracted from all other wells before the percentage of hemolysis was calculated in comparison to 0.02% Triton-X100, by dividing the background corrected signal of treated wells over the background corrected signal of the 0.02% Triton-X100 wells (×100).

Turning to `CC(=O)O[C@H]1[C@H](O[C@@H]2OC[C@@H](O)[C@H](O)[C@H]2O)[C@@H](O)[C@H](O[C@@H]2[C@H](O)[C@@H](O[C@@H]3O[C@@H](C)[C@H](O[C@@H]4OC[C@@H](O)[C@H](O[C@@H]5O[C@H](CO)[C@@H](O)[C@H](O)[C@H]5O)[C@H]4O)[C@@H](O)[C@H]3O)[C@H](OC(=O)[C@]34CCC(C)(C)C[C@H]3C3=CC[C@@H]5[C@@]6(C)CC[C@H](O[C@@H]7O[C@H](C(=O)O)[C@@H](O)[C@H](O[C@@H]8OC[C@@H](O)[C@H](O)[C@H]8O)[C@H]7O[C@@H]7O[C@H](CO)[C@H](O)[C@H](O)[C@H]7O)[C@@](C)(C=O)[C@@H]6CC[C@@]5(C)[C@]3(C)C[C@H]4O)O[C@@H]2C)O[C@@H]1C` [SO1861], the “Ratio: IC50 haemolysis/IC50 activity” value by setting is: (activity in A431 cells) 33; (activity in HeLa cells) 20.
